Laboratory results: paper PMC12520681
These are yes or no findings as the source states them, for the method shown. Binding seen in cells or lysates may run through a third protein. Some results given as binding are weak or reduced against the parent protein; the word gives no strength.

Protein sequences, listed by entry. Tags and fused reporters are not part of them.
UniProt Q9P258: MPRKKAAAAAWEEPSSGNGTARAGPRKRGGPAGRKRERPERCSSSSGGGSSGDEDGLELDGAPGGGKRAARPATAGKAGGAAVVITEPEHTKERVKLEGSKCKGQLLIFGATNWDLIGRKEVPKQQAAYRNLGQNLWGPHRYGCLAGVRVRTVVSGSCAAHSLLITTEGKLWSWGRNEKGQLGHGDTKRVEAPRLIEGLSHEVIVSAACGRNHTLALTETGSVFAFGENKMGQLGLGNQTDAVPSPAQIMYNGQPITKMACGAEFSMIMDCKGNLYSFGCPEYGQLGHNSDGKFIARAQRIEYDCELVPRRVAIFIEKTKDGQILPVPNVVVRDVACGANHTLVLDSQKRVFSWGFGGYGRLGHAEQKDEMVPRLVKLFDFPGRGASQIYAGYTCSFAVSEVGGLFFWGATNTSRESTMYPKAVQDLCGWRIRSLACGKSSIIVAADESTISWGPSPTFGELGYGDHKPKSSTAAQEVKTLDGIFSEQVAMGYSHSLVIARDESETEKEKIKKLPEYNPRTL
UniProt P08670: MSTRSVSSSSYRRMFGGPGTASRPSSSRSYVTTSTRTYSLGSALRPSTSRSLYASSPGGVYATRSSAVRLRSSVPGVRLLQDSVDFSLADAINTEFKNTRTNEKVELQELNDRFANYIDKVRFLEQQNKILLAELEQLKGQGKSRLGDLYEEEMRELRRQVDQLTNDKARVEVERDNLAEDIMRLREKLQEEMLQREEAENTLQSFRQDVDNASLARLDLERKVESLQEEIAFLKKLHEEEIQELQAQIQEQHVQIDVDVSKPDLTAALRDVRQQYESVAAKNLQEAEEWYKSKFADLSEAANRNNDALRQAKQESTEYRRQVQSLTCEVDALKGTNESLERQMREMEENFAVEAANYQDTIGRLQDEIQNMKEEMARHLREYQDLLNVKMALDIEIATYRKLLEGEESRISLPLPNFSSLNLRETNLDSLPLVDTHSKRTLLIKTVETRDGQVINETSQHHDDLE

Key:
CD24 (human) = molecular target: T1, CD24 (human) (UniProt P25063); test: co-IP; HEK293T cells transiently coexpressing CD24 and RCC2; reciprocal IP with anti-CD24 and anti-RCC2 antibodies, protein A/G agarose beads
T1 sequence: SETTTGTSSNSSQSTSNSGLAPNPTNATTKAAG

[1] = molecular target: Regulator of Chromosome Condensation 2 (human (endogenous in DU145)) (UniProt Q9P258); test: co-IP; endogenous proteins in DU145 cells; IP with either anti-RCC2 or anti-vimentin antibodies, protein A/G agarose beads

| binding (CD24 (human)) | binding [1] | Substance |
| --- | --- | --- |
| binds |  | Regulator of Chromosome Condensation 2 (from UniProt Q9P258 1-522) |
|  | binds | Vimentin (from UniProt P08670 1-466) |
